The data set deals with patients with advanced GI tract adenocarcinoma. To be noted: for dose intensity: dose level VI; for dose intensity (DI) for each drug, percentage of intended: dose levels I-VI.
[1] abbreviates: dose level VII, first six cycles.

Structures can show the parent of a compound that is named as a salt.

For the compound `CCc1c2c(nc3ccc(OC(=O)N4CCC(N5CCCCC5)CC4)cc13)-c1cc3c(c(=O)n1C2)COC(=O)[C@]3(O)CC` [irinotecan, Irinotecan hydrochloride], the dose intensity result was “over 90%”. Moreover, the “irinotecan dose intensity (DI), percentage of intended” value under setting [1] was determined as 83%. The “dose intensity (DI) for each drug, percentage of intended” value (first six cycles) is reported as roughly 100%.

In the case of `Cc1nc2ccc(CN(C)c3ccc(C(=O)N[C@@H](CCC(=O)O)C(=O)O)s3)cc2c(=O)[nH]1` [raltitrexed], the dose intensity entry was “over 90%”. Further, the “raltitrexed dose intensity (DI), percentage of intended” value under setting [1] is 66%. Moreover, the “dose intensity (DI) for each drug, percentage of intended” value (first six cycles) is given as roughly 100%.

Values taken from PMC2363476 (British Journal of Cancer, 2000).
